Assay [1] addresses Flag-tagged SIRT1 deletion construct Δ8 (UniProt Q96EB6). In words: co-IP; HEK293T co-transfected 1:1 for 48 h; lysis in 20 mM Tris-HCl pH 7.5, 150 mM NaCl, 1% Triton; IP with Flag antibody (IgG as control) overnight at 4°C, Protein A/G beads; blot for GFP, reprobed for Flag.
Assay [2] addresses Flag-tagged full length SIRT1 (UniProt Q96EB6). Described as above.
Assay [3] concerns the target HDAC1, endogenous in cerebellar granule neurons (rat (endogenous in cerebellar granule neurons)) (UniProt Q4QQW4). In words: co-IP; endogenous proteins of rat cerebellar granule neurons treated with HK or LK media for 6 h; IP with IgG, SIRT1 or HDAC1 antibody; same lysis buffer.

The chains behind the UniProt entries cited, without tags or fusion partners. Where a name states a change or a piece, a line headed by the entry shows the natural chain unless it says otherwise. A line that says so, or that is headed by a name, gives the form on record, which may keep a tag or linker.
UniProt Q96EB6: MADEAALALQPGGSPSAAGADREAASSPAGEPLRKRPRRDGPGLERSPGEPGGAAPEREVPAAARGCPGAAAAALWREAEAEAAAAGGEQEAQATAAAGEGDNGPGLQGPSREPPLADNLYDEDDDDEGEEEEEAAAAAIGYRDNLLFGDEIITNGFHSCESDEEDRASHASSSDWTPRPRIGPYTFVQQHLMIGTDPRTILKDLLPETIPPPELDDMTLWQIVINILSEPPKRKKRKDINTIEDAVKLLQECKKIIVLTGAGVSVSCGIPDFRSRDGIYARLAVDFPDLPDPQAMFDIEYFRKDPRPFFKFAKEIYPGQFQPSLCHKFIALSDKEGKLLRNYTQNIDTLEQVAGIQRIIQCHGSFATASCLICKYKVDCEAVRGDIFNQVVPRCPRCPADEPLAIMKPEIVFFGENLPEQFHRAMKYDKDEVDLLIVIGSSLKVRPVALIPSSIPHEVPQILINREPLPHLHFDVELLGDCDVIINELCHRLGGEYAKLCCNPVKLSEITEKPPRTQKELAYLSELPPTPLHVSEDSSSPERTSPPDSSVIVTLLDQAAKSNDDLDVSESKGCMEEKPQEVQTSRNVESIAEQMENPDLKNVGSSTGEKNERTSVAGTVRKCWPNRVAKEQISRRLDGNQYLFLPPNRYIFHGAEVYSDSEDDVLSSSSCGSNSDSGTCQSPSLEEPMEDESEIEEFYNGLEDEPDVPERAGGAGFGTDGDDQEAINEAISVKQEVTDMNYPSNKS
Flag-tagged SIRT1 deletion construct Δ8 (Q96EB6, form named): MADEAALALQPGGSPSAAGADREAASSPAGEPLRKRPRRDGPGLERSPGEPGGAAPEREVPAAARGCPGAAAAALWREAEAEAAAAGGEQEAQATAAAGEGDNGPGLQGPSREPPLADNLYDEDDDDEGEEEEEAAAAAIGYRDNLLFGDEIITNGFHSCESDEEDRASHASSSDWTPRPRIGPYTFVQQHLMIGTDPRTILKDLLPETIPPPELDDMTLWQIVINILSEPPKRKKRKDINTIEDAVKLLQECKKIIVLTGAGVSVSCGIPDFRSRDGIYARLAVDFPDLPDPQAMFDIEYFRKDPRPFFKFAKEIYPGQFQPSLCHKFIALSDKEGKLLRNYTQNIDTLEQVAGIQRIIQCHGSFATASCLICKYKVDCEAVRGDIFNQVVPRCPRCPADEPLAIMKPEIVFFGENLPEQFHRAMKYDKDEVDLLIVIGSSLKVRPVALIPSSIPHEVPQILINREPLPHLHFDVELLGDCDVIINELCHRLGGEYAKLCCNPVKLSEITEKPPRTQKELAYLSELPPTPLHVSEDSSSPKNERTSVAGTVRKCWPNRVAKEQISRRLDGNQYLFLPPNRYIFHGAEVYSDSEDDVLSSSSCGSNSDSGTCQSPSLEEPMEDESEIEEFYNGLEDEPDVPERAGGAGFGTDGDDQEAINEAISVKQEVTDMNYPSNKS
UniProt Q4QQW4: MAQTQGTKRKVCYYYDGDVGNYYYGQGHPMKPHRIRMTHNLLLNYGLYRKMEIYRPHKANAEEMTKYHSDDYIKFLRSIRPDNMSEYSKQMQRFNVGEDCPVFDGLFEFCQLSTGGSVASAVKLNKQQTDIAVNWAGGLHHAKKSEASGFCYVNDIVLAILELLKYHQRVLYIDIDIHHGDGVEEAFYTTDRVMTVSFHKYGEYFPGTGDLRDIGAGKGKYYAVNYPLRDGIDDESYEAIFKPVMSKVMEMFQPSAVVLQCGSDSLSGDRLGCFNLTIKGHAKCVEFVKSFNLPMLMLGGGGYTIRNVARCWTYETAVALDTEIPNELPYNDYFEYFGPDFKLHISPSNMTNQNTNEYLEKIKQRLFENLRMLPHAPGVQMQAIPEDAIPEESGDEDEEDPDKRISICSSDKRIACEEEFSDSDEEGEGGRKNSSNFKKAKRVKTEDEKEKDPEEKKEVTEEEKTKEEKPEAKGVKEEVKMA
UniProt Q13547: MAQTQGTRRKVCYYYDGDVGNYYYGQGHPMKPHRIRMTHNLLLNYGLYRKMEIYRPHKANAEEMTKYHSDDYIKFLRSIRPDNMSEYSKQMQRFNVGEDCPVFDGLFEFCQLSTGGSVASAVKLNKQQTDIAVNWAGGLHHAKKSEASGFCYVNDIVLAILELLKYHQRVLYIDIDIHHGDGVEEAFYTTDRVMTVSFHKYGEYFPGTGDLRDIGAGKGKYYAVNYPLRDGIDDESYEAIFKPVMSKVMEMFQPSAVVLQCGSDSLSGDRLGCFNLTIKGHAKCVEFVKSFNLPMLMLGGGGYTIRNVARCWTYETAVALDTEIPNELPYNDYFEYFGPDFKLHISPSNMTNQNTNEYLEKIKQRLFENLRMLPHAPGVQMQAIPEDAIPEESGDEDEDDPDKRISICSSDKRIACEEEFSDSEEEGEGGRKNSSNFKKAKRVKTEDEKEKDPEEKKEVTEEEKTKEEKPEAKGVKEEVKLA

Results are given in words; binding and its absence hold for the method and conditions named. In cells and extracts the contact can be indirect. Some binding calls cover weakened binding; strength is not graded here.

In the case of HDAC1-GFP (from UniProt Q13547 1-482), the binding result in assay [1] and in assay [2] was “binds” each time.

As for “HDAC1-Δ56-GFP (from UniProt Q13547 57-482) (domain or fragment)”, the binding result in assay [1] and in assay [2] was “binds” in each case.

B1: SIRT1, endogenous in cerebellar granule neurons (protein, UniProt A0A0G2JZ79 1-741)
chain: MADEAALALQAGGSPSAAAAMEAASQPADEPLRKRPRRDGPGLGRSPGEPSAAAAAAAAAAGCEAASAAAPAALWREAAGAAAASAEREAPATAAAGDGDNGPGLRREPRAADDFDDDEGEEEDEAAAAAAAAIGYRDNLLLADEIITNGFHSCESDDDDRASHASSSDWTPRPRIGPYTFVQQHLMIGTDPRTILKDLLPETIPPPELDDMTLWQIVINILSEPPKRKKRKDINTIEDAVKLLQECKKIIVLTGAGVSVSCGIPDFRSRDGIYARLAVDFPDLPDPQAMFDIEYFRKDPRPFFKFAKEIYPGQFQPSLCHKFIALSDKEGKLLRNYTQNIDTLEQVAGIQRIIQCHGSFATASCLICKYKVDCEAVRGDIFNQVVPRCPRCPADEPLAIMKPEIVFFGENLPEQFHRAMKYDKDEVDLLIVIGSSLKVRPVALIPSSIPHEVPQILINREPLPHLHFDVELLGDCDVIINELCHRLGGEYAKLCCNPVKLSEITEKPPRTQKELVHLSELPPTPLHISEDSSSPERTVPQDSSVIATLVDQTIKNKVDDLEVSEPKSCVEEKSQEVQTYRNVESINVENPDFKAVGSSTGDKNERTSVAETVRKCWPNRLAKEQISKRLDGNQYLFVPPNRYIFHGAEVYSDSEDDALSSSSCGSNSDSGTCQSPSLEEPLEDESEIEEFYNGLEDDADRPECAGGSGADGGDQEAVNEAIAMKQELTDVNCTPDKSEHY
For B1, in assay [3], the binding result was “binds”.

These data come from article PMC6459503.
